# Reference: the supplement of paper PMC10849652
# By UniProt entry, the sequences of proteins in these tests, tags left out. Where a name states a change or a piece, a line headed by the entry shows the natural chain unless it says otherwise.
# UniProt P14550: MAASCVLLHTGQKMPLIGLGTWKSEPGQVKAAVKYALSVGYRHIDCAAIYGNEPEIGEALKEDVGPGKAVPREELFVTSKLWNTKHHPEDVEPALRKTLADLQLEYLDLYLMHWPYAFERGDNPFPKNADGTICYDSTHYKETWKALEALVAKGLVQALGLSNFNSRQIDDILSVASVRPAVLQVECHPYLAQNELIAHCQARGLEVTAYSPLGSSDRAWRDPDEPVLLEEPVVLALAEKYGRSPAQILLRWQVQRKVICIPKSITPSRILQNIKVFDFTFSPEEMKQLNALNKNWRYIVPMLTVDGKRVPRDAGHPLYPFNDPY
# UniProt P07311: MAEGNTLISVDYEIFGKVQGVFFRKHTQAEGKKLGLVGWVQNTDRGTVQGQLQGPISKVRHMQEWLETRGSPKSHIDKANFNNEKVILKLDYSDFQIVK
# UniProt O43823: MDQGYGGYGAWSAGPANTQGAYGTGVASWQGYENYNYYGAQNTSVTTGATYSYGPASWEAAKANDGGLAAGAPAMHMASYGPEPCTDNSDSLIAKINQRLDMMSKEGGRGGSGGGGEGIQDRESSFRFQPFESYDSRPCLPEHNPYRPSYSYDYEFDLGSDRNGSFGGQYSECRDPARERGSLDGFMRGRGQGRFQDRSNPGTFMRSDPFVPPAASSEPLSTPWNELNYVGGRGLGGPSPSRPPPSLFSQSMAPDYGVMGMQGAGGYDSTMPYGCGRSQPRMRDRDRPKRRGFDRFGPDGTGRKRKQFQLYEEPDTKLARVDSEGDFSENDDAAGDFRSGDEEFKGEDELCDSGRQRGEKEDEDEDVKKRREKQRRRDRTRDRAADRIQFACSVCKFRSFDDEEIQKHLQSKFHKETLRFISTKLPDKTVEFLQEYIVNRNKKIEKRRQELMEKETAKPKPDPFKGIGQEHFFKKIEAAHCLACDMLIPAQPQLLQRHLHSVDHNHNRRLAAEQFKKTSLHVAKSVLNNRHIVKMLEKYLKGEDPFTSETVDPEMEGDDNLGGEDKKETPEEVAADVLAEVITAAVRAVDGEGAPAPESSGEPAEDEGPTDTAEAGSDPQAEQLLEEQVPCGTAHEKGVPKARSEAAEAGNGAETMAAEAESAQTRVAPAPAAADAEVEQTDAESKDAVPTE
# UniProt Q9H2P0: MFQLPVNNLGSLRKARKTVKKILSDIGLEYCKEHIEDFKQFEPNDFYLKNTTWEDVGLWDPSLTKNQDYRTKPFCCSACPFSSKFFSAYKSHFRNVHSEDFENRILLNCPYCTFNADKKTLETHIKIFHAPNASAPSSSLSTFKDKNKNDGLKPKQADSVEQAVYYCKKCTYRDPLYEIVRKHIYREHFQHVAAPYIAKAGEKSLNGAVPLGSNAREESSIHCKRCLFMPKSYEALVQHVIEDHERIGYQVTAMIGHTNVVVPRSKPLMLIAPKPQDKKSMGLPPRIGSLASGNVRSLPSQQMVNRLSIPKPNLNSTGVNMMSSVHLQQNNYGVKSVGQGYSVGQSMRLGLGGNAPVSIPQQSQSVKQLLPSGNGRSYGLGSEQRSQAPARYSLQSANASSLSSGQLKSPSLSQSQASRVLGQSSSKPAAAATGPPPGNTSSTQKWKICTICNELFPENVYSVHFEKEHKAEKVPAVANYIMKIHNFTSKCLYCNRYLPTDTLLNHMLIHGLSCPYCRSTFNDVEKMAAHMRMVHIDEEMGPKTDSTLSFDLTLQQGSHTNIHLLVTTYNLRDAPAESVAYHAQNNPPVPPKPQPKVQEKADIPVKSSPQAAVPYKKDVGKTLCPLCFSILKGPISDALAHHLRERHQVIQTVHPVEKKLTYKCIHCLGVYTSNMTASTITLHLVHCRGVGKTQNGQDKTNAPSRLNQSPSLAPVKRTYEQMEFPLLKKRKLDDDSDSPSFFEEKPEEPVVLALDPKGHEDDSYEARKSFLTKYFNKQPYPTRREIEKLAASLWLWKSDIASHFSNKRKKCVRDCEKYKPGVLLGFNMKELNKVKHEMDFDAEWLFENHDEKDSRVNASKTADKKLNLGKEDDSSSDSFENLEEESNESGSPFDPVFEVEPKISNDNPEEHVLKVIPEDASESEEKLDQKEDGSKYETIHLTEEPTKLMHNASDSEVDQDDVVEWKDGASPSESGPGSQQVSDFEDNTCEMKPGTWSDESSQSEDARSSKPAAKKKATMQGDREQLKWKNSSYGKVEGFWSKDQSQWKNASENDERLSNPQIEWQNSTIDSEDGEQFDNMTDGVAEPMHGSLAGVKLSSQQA
# UniProt Q9NUQ2: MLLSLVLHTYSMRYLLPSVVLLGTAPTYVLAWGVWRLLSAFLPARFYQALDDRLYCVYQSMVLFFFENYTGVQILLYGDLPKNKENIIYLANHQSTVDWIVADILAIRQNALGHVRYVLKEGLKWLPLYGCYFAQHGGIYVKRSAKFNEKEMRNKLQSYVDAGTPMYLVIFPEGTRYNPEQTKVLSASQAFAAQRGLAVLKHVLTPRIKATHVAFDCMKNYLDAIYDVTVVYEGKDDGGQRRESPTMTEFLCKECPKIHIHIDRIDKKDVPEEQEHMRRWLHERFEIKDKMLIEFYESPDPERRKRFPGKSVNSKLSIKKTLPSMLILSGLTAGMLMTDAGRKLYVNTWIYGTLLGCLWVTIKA
# UniProt Q9UEY8: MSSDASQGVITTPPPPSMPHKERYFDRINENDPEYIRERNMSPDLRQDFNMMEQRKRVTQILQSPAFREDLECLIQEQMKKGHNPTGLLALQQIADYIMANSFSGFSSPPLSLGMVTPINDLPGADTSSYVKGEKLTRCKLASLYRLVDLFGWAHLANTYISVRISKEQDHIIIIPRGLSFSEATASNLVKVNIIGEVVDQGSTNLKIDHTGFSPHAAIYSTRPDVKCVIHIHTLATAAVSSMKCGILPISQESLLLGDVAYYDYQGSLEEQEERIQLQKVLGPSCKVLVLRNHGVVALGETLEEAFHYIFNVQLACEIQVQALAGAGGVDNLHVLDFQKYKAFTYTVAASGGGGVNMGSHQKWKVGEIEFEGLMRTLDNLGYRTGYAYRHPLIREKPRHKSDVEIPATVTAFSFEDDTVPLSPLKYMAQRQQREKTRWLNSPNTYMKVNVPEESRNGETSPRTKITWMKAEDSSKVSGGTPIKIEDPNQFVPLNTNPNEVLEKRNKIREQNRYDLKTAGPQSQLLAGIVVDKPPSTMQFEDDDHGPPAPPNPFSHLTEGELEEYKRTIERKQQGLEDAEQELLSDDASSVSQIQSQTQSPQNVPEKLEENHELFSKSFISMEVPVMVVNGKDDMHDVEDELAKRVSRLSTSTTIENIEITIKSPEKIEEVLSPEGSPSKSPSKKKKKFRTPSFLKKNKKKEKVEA
# UniProt Q9BQI0: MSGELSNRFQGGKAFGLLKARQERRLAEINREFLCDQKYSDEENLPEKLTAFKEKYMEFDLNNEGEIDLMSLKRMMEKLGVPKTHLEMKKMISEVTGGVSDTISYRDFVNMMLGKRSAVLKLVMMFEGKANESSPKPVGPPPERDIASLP
# UniProt P55265: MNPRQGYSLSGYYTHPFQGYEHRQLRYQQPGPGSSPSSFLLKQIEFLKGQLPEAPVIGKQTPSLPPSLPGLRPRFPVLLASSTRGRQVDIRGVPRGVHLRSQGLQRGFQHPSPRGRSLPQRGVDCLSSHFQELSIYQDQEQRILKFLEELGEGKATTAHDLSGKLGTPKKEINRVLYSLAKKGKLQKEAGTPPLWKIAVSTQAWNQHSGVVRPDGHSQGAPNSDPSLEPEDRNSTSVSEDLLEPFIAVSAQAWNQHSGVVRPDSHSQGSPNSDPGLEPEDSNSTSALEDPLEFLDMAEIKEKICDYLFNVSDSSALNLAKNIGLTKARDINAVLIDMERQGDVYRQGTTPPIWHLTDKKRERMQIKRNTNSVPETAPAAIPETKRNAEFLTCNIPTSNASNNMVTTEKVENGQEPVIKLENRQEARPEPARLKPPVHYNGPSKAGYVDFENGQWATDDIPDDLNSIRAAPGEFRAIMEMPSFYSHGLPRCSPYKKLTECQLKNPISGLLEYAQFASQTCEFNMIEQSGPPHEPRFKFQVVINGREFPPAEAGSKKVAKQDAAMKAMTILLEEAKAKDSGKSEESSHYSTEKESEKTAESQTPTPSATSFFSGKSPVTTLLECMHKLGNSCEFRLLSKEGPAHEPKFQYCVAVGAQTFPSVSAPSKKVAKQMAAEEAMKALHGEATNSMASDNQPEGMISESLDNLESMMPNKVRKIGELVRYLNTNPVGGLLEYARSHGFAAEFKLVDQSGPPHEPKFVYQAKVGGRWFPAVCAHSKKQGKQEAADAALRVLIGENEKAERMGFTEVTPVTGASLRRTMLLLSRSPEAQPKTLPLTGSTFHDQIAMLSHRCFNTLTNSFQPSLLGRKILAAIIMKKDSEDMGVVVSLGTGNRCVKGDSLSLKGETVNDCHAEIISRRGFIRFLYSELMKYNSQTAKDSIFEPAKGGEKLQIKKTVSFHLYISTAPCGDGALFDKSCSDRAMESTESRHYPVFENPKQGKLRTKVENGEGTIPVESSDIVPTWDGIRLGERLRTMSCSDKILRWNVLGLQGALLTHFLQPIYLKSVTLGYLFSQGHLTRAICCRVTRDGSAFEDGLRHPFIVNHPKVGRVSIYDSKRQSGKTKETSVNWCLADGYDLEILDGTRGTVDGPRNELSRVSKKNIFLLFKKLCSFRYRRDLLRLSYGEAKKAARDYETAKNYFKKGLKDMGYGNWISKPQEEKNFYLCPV
# UniProt P35612: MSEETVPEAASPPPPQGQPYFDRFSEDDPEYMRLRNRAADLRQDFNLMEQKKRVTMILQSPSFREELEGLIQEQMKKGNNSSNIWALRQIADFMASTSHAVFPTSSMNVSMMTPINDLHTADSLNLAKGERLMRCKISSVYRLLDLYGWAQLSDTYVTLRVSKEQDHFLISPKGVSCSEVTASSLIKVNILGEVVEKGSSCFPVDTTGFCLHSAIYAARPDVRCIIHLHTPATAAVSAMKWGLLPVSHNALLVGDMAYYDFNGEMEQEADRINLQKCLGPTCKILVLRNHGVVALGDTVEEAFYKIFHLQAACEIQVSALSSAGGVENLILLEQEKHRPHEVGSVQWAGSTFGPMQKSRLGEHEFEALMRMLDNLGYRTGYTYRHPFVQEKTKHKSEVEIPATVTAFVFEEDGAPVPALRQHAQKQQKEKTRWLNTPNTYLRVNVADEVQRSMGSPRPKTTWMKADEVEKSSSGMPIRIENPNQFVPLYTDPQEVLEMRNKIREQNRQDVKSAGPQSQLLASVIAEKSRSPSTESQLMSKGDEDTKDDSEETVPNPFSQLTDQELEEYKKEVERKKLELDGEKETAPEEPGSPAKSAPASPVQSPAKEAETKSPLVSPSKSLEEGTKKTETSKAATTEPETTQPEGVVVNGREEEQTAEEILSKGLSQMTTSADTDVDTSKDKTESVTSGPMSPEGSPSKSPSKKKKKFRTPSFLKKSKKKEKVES
# UniProt P00568: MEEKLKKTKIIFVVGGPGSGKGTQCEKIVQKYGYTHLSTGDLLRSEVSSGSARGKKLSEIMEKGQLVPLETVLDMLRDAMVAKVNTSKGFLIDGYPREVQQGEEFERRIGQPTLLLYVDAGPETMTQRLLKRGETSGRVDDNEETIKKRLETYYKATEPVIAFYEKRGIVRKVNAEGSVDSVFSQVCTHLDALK
# UniProt Q99943: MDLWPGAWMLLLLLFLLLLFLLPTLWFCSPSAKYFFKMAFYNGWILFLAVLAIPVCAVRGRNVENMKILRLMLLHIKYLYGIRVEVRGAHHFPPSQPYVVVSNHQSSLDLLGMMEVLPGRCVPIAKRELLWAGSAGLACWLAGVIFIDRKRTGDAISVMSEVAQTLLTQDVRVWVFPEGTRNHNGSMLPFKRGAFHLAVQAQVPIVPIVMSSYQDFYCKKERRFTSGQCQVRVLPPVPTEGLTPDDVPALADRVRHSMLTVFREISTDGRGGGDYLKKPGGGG
# UniProt Q562R1, whole entry, looked up: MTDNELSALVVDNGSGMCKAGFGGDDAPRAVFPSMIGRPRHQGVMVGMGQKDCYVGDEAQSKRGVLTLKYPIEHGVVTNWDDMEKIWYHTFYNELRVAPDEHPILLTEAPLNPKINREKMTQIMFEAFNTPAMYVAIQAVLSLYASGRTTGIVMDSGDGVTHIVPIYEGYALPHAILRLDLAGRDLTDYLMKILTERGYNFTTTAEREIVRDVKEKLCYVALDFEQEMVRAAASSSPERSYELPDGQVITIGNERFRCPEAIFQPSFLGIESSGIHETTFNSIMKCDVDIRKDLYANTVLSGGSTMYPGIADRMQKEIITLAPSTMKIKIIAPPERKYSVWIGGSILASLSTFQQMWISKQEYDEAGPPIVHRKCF
# UniProt O00170: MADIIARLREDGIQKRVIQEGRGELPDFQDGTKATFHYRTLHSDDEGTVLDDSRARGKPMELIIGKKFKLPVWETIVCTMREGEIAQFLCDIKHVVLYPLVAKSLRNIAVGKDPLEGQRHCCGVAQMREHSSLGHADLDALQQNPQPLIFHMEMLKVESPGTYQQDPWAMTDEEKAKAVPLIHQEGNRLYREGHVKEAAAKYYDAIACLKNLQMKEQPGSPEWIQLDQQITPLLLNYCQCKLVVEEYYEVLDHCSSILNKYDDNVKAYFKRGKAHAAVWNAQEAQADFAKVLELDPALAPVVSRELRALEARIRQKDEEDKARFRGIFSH
# Some of the results follow.
# What was measured:
# Experiment in all cases: log2 fold change, soluble protein after heating vs DMSO (PISA); higher = thermal stabilisation; K562 lysate, 10 uM; active = over 0.2 and 3.5 SD of the protein, either way, in both replicates (recomputed)
# lapatinib = compound: CS(=O)(=O)CCNCc1ccc(-c2ccc3ncnc(Nc4ccc(OCc5cccc(F)c5)c(Cl)c4)c3c2)o1 [lapatinib]
# Method in brief: (§1)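 Pellets of K562 cells were dounce-homogenised in PBS pH 7.4 with 1 mM MgCl2, and the crude extract was held at 1 mg/mL protein for a 30 min treatment with 10 μM compound. Aliquots were heated for 3 min over 48°C-58°C and pooled before NP-40 was added to 0.5% at 4°C. The supernatant from 21,000xg for 90 min was quantified by TMTpro 16plex LC-MS/MS with channel sums equalised. Values are reported from duplicates as log-two fold change in thermal stability relative to solvent controls.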
# pictilisib = compound: CS(=O)(=O)N1CCN(Cc2cc3nc(-c4cccc5[nH]ncc45)nc(N4CCOCC4)c3s2)CC1 [pictilisib]
# Method in brief: as §1
# crizotinib = compound: C[C@@H](Oc1cc(-c2cnn(C3CCNCC3)c2)cnc1N)c1c(Cl)ccc(F)c1Cl [crizotinib]
# Method in brief: as §1
# [1] = compound: C[C@H](C1=CC=C(C=C1)C(=O)NC2=C3C=CNC3=NC=C2)N
# Method in brief: as §1
# duvelisib = compound: C[C@H](Nc1ncnc2nc[nH]c12)c1cc2cccc(Cl)c2c(=O)n1-c1ccccc1 [duvelisib]
# Method in brief: as §1
# gandotinib = compound: Cc1cc(Nc2cc(CN3CCOCC3)c3nc(C)c(Cc4ccc(Cl)cc4F)n3n2)n[nH]1 [gandotinib]
# Method in brief: as §1
# tozasertib = compound: Cc1cc(Nc2cc(N3CCN(C)CC3)nc(Sc3ccc(NC(=O)C4CC4)cc3)n2)n[nH]1 [tozasertib]
# Method in brief: as §1
# doramapimod = compound: Cc1ccc(-n2nc(C(C)(C)C)cc2NC(=O)Nc2ccc(OCCN3CCOCC3)c3ccccc23)cc1 [doramapimod]
# Method in brief: as §1
# bafetinib = compound: Cc1ccc(NC(=O)c2ccc(CN3CC[C@H](N(C)C)C3)c(C(F)(F)F)c2)cc1Nc1nccc(-c2cncnc2)n1 [bafetinib]
# Method in brief: as §1
# [2] = compound: Cc1cccc(CC(=O)N2CCc3c2ccc(-c2cn(C)c4ncnc(N)c24)c3F)n1
# Method in brief: as §1
Target,log2 fold change (lapatinib),log2 fold change (pictilisib),log2 fold change (crizotinib),log2 fold change [1],log2 fold change (duvelisib),log2 fold change (gandotinib),log2 fold change (tozasertib),log2 fold change (doramapimod),log2 fold change (bafetinib),log2 fold change [2]
AKR1A1 (UniProt P14550),inactive: -0.011,inactive: -0.003,inactive: -0.003,inactive: 0.082,inactive: -0.014,inactive: -0.043,inactive: 0.012,inactive: -0.001,inactive: -0.017,inactive: -0.033
ACYP1 (UniProt P07311),inactive: -0.001,inactive: -0.044,inactive: 0.024,active: 0.236,inactive: 0.005,inactive: -0.051,inactive: 0.016,inactive: 0.009,inactive: 0.005,inactive: -0.091
AFDN (UniProt A8MQ02),inactive: -0.131,–,–,–,–,–,–,–,–,–
AFG3L2 (UniProt Q9Y4W6),inactive: -0.035,inactive: 0.02,inactive: -0.014,inactive: 0.067,inactive: 0.031,inactive: -0.203,inactive: 0.049,inactive: -0.009,inactive: -0.069,inactive: -0.048
ACP1 isoform 2 (UniProt P24666),inactive: -0.043,inactive: -0.001,inactive: -0.047,inactive: 0.04,inactive: -0.017,inactive: -0.014,inactive: 0,inactive: 0.002,inactive: -0.041,inactive: 0.029
AKAP8 (UniProt O43823),inactive: 0.008,inactive: -0.126,inactive: 0.023,inactive: 0.035,inactive: 0.022,inactive: 0.003,inactive: 0.017,inactive: -0.071,inactive: -0.119,inactive: 0.039
AIFM1 (UniProt O95831),inactive: 0.025,inactive: -0.016,inactive: 0.042,inactive: 0.091,inactive: -0.005,inactive: -0.008,inactive: -0.014,inactive: 0.005,inactive: 0.021,inactive: -0.033
ACSL4 (UniProt O60488),inactive: 0.008,inactive: 0.028,inactive: -0.042,inactive: -0.016,inactive: 0.026,inactive: -0.065,inactive: 0.002,inactive: 0.025,inactive: -0.093,inactive: -0.003
ADNP (UniProt Q9H2P0),inactive: -0.029,inactive: 0.015,inactive: -0.018,inactive: -0.112,inactive: 0.016,inactive: 0.096,inactive: 0.028,inactive: -0.005,inactive: -0.03,inactive: 0.132
ADA (UniProt P00813),inactive: -0.014,inactive: 0.003,inactive: -0.051,inactive: -0.107,inactive: -0.004,inactive: 0.107,inactive: -0.035,inactive: 0.027,inactive: 0.016,inactive: 0.08
AFDN isoform 1 (UniProt P55196),inactive: -0.009,inactive: -0.009,inactive: -0.037,inactive: 0.027,inactive: -0.009,inactive: -0.059,inactive: 0.008,inactive: 0.029,inactive: -0.038,inactive: 0.002
ACSF3 (UniProt Q4G176),inactive: 0.009,inactive: -0.075,inactive: -0.035,inactive: 0.035,inactive: 0.04,inactive: 0.057,inactive: 0.019,inactive: -0.006,inactive: 0.03,inactive: -0.03
AGK (UniProt Q53H12),inactive: -0.021,inactive: 0.017,inactive: -0.022,inactive: 0.04,inactive: -0.012,inactive: -0.099,inactive: -0.02,inactive: -0.003,inactive: 0,inactive: -0.019
AGPAT5 (UniProt Q9NUQ2),inactive: 0.013,inactive: -0.018,inactive: -0.076,inactive: 0.071,inactive: 0.033,inactive: -0.105,inactive: -0.004,inactive: -0.071,inactive: -0.086,inactive: 0.036
ADD3 (UniProt Q9UEY8),inactive: 0.014,inactive: 0.034,inactive: 0.009,inactive: -0.02,inactive: -0.001,inactive: 0.028,inactive: -0.007,inactive: 0.011,inactive: -0.013,inactive: 0.018
AIF1L (UniProt Q9BQI0),inactive: 0.047,inactive: 0.046,inactive: 0.039,inactive: 0.069,inactive: -0.075,inactive: -0.171,inactive: -0.105,inactive: -0.037,inactive: -0.122,inactive: 0.101
ACSS1 (UniProt Q9NUB1),inactive: -0.082,inactive: 0.025,inactive: -0.008,inactive: 0.019,inactive: -0.17,inactive: -0.046,inactive: -0.049,inactive: 0.044,inactive: -0.058,inactive: 0.045
ADAR isoform 4 (UniProt P55265),inactive: 0.023,inactive: -0.135,inactive: 0,inactive: 0.01,inactive: 0.016,inactive: -0.038,inactive: 0.016,inactive: 0.069,inactive: -0.16,inactive: 0.028
ADD2 (UniProt P35612),inactive: 0,inactive: 0.011,inactive: 0.035,inactive: -0.024,inactive: 0.031,inactive: 0.055,inactive: -0.007,inactive: -0.02,inactive: -0.039,inactive: 0.053
AK1 (UniProt P00568),inactive: -0.027,inactive: -0.011,inactive: 0.091,active: 0.285,inactive: -0.001,inactive: -0.118,inactive: 0.023,inactive: -0.037,inactive: 0.06,inactive: -0.189
ACSS2 isoform 2 (UniProt Q9NR19),inactive: -0.002,inactive: -0.016,inactive: -0.012,inactive: -0.007,inactive: -0.009,inactive: -0.06,inactive: 0.06,inactive: 0.043,inactive: -0.024,inactive: 0.011
AGPAT1 (UniProt Q99943),inactive: -0.122,inactive: 0.009,inactive: -0.029,inactive: -0.019,inactive: 0.009,inactive: -0.034,inactive: 0.041,inactive: 0.028,inactive: -0.057,inactive: 0.091
AKNA (UniProt Q7Z591),inactive: 0.016,inactive: 0.166,inactive: 0.006,inactive: 0.171,inactive: -0.037,inactive: 0.143,inactive: 0.138,inactive: -0.005,inactive: 0.024,inactive: 0.156
AGO1 (UniProt Q9UL18),inactive: 0.009,inactive: -0.056,inactive: -0.008,inactive: 0.107,inactive: 0.029,inactive: -0.051,inactive: -0.099,inactive: 0.008,inactive: 0.01,inactive: -0.084
AIFM2 (UniProt Q9BRQ8),inactive: 0.132,inactive: -0.024,inactive: 0.06,inactive: -0.143,inactive: 0.004,active: 0.507,inactive: -0.014,inactive: 0.307,inactive: 0.086,inactive: 0.089
ACTR3B (UniProt Q9P1U1),inactive: 0.033,inactive: -0.207,inactive: 0.003,inactive: 0.017,inactive: -0.07,inactive: -0.005,inactive: 0.062,inactive: -0.02,inactive: 0.014,inactive: -0.002
AGO2 (UniProt Q9UKV8),inactive: 0.006,inactive: -0.036,inactive: 0.042,inactive: 0.034,inactive: 0.011,inactive: -0.037,inactive: -0.029,inactive: -0.044,inactive: 0.009,inactive: -0.074
AKAP9 (UniProt Q99996),inactive: -0.127,inactive: -0.057,inactive: -0.009,inactive: 0.028,inactive: -0.016,inactive: -0.054,inactive: -0.005,inactive: 0.021,inactive: -0.027,inactive: 0.106
ACTBL2 (UniProt Q562R1),inactive: 0.163,inactive: 0.102,inactive: 0.091,inactive: 0.408,inactive: -0.035,inactive: -0.166,inactive: -0.201,inactive: -0.15,inactive: 0.37,active: -0.547
AIP (UniProt O00170),inactive: -0.004,inactive: -0.026,inactive: 0.021,active: 0.41,inactive: -0.031,inactive: -0.019,inactive: -0.012,inactive: -0.022,inactive: 0.055,inactive: -0.043

# Single records (already shown). Values in the order: log2 fold change (lapatinib)	log2 fold change (pictilisib)	log2 fold change (crizotinib)	log2 fold change [1]	log2 fold change (duvelisib)	log2 fold change (gandotinib)	log2 fold change (tozasertib)	log2 fold change (doramapimod)	log2 fold change (bafetinib)	log2 fold change [2]
# ACP1 isoform 2 (UniProt P24666) as listed: inactive: -0.043	inactive: -0.001	inactive: -0.047	inactive: 0.04	inactive: -0.017	inactive: -0.014	inactive: 0	inactive: 0.002	inactive: -0.041	inactive: 0.029
# AFDN (UniProt A8MQ02) as listed: inactive: -0.131	–	–	–	–	–	–	–	–	–
